Measured values as given in PubChem BioAssay AID2685 (National Center for Advancing Translational Sciences (NCATS), 2010).
The other results are listed elsewhere or left out. Shown are side measurements of this screen, not its main read-out; they come without a call. Compounds called inactive in the main read-out are mostly missing here. Words in brackets tell the shape of the fitted curve; partial curves, single points and poor fits give uncertain potencies.

Experiment: qHTS Assay for Lipid Storage Modulators in Drosophila S3 Cells;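 on cell number change: cells counted by Cell Tracker Red CMTPX staining in the red channel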
Conditions: BODIPY lipid droplet fluorescence, 18-24 h; for cell number change: measured here: cell count max response, cells fed with added oleic acid
How it was run: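 Drosophila S3 cells got compounds at several concentrations plus oleic acid (400 uM solution). Laser-scanning cytometry with 488 nm excitation read lipid droplets at 500-530 nm and cells at 575-640 nm. Percent activity was relative to 20 uM Triacsin C.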

[1] = measured here: lipid fluorescence (Fed channel) AC50, cells fed with added oleic acid
[2] = measured here: cell number channel AC50, cells fed with added oleic acid

Row | SMILES | cell number change [%] | AC50 [1] | AC50 [2]
1 | COCCOC(=O)C1=C(C)OC(N)=C(C(=O)OC)C12C(=O)Nc1ccccc12 (centres undefined) | 7.11 |  | 
2 | O=C1CSC2N1CCNC21CCCCC1 (centres undefined) | 1.92 | 1.46 µM [rising, full curve, poor fit] | 
3 | Cc1cc(/C=C2/C(=O)NC(=O)N(C)C2=O)c(C)n1-c1ccccc1 | 45.6 | 7.31 µM [falling, single point] | 29.1 µM [rising, single point]
4 | CCN(CC)P(=O)(NC(=O)C(Cl)(Cl)Cl)N(CC)CC.[Cl-].[Cl-].[Cl-].[Nd+3] | -95.1 | 0.116 µM [falling, full curve, poor fit] | 20.6 µM [falling, partial curve]
5 | O=c1[nH]c(=O)n(CCc2ccccc2)c(O)c1C=NCCN1CCNCC1 | 9.26 |  | 5.8 µM [falling, single point]
6 | CC(=O)OC1(c2ccccc2)CC(C(C)(C)C)CN(C(C)(C)C)C1 (centres undefined) | -4.82 | 32.6 µM [falling, single point] | 6.51 µM [falling, single point]
7 | CCOc1cc(-c2nc3c(C)cccn3c2NCC2CCCO2)ccc1O (centres undefined) | 5.02 |  | 
8 | COC(=O)C1=C(c2ccc(F)cc2OCc2ccccc2)C[C@@H]2CC[C@H]1N2C(=O)NCc1ccc([N+](=O)[O-])cc1 | -10.7 | 1.64 µM [rising, single point] | 
9 | CC(C)c1ccc(NC(=O)CSc2nnc(OC(=O)N(C)C)n2C2CC2)cc1 | -74.8 | 29.1 µM [rising, single point] | 29.1 µM [falling, single point]
10 | CC(C)(C)[C@]1(O)C[C@@H]2OC(=O)C[C@@]23C(=O)O[C@@H]2OC(=O)[C@H](O)[C@]213 | -32.8 | 3.26 µM [falling, full curve] | 32.6 µM [falling, single point]
11 | O=C(Nc1ccccc1OC(=O)N1CCOCC1)N1CCOCC1 | -6.71 |  | 
12 | O=c1[nH]c(=S)[nH]c(O)c1/C=C1/C=c2ccccc2=N1 |  | 14.6 µM [falling, partial curve] | 
13 | Cn1cc(Br)c(C(=O)Nc2ccc3c(C(F)(F)F)cc(=O)oc3c2)n1 | -6.52 | 5.17 µM [falling, partial curve] | 7.31 µM [falling, single point]
14 | CCC(=NCCc1ccccc1)c1c(O)n(C2CCCCC2)c(=O)[nH]c1=O | -10.4 | 6.51 µM [rising, single point] | 
15 | CCCOc1ccc(C(C)=O)cc1Cc1c(O)[nH]c(=S)[nH]c1=O | -17.1 |  | 3.66 µM [falling, single point]
16 | COc1cccc(CN2CCCC(C(=O)c3ccccc3SC)C2)c1O (centres undefined) | 17.6 | 16.4 µM [rising, partial curve] | 
17 | COc1cccc(CN2CCCCC2c2cccnc2)c1 (centres undefined) | -7.48 | 0.92 µM [rising, full curve, poor fit] | 
18 | CN(C)C(Cc1ccccc1)C(=O)c1ccccc1 (centres undefined) | 3.86 | 25.9 µM [rising, partial curve] | 
19 | CSC(=Nc1ccccc1)c1c(O)n(C)c(=O)n(C)c1=O | -0.768 |  | 
20 | OC1(CN2CCOCC2)C2CC3CC(C2)CC1C3 (centres undefined) |  | 7.31 µM [falling, partial curve] | 

Row | SMILES | cell number change [%] | AC50 [1] | AC50 [2]
21 | CCOC(=O)c1c(P(=O)(N2CCOCC2)N2CCOCC2)noc1N |  |  | 1.84 µM [falling, full curve]
22 | COc1ccc(CNCCc2cccc(F)c2)c2ccccc12 | -33.8 | 14.6 µM [rising, partial curve] | 18.4 µM [falling, single point]
23 | COc1cccc(Oc2c(C)oc3cc(OC(=O)N(C)C)ccc3c2=O)c1 | -18.3 |  | 0.651 µM [falling, partial curve, poor fit]
24 | COc1ccc(OC)c(C(O)C(C)N)c1 (centres undefined) | -9.5 | 3.66 µM [falling, full curve, poor fit] | 
25 | COc1cc2c(cc1OC)-c1c(OC)c(OC)cc3c1C(C2)N(C)CC3 (centres undefined) | -16.5 | 13 µM [rising, single point] | 
26 | CC(=NCCCn1ccnc1)c1c(O)n(C2CCCCC2)c(=O)[nH]c1=O | 20.6 |  | 
27 | CCOC(=O)c1c(N)n(Cc2ccc(OC)cc2)c2nc3ccccc3nc12 | 22.1 | 0.058 µM [rising, partial curve, poor fit] | 0.0651 µM [rising, full curve, poor fit]
28 | C=CCn1c(O)c(C(CC)=NCCCO)c(=O)[nH]c1=O | 2.82 |  | 
29 | O[C@H]1C2CCC1C(N1CCCCC1)CC2 (some centres undefined) | -44.1 | 29.1 µM [falling, single point] | 1.16 µM [falling, full curve]
30 | COc1ccc(OC(=O)N(C)C)c(CN(C)C)c1 | -22.6 | 5.8 µM [falling, partial curve, poor fit] | 
31 | COc1ccccc1OCCCn1cc(C(=O)C2CC2)c2ccccc21 | 15.9 | 16.4 µM [rising, single point] | 
32 | c1ccc(CN2CCc3nc4ccccc4cc3C2)cc1 |  | 0.0146 µM [rising, full curve, poor fit] | 
33 | Cn1cc(C(=O)NC2CC2)c2ccccc21 | 8.56 |  | 
34 | Cc1cc(C)nc(/N=C(\N)c2c(O)[nH]c(=O)[nH]c2=O)n1 |  | 0.651 µM [rising, single point] | 
35 | CN(C)C1(CNC(=O)c2ccc(Cl)c(S(=O)(=O)NCc3ccco3)c2)CCCCC1 | -11 |  | 
36 | Nc1ccccc1C(=O)OCCc1ccccc1 | -63.2 |  | 29.1 µM [falling, single point]
37 | O=C1NC(=O)C(CCc2ccncc2)(CCc2ccccn2)C(=O)N1c1ccc(Br)cc1 (centres undefined) | 21.1 | 32.6 µM [rising, single point] | 
38 | COC(=O)C1=C(c2ccc(C(C)=O)cc2)C[C@@H]2CC[C@H]1N2C(=O)N1CCCC1 | -32.5 | 29.1 µM [falling, single point] | 0.146 µM [falling, full curve, poor fit]
39 | COc1ccc(/C=C/C(=O)NC(=S)N2C[C@H]3C[C@H](C2)c2cccc(=O)n2C3)cc1OC | -7.12 |  | 

From compound 21 up to 22, as listed above:
Row | SMILES | cell number change [%] | AC50 [1] | AC50 [2]
21 | CCOC(=O)c1c(P(=O)(N2CCOCC2)N2CCOCC2)noc1N |  |  | 1.84 µM [falling, full curve]
22 | COc1ccc(CNCCc2cccc(F)c2)c2ccccc12 | -33.8 | 14.6 µM [rising, partial curve] | 18.4 µM [falling, single point]
